Source: article PMC5017052
Results are given in words; binding and its absence hold for the method and conditions named. Binding seen in cells or lysates may run through a third protein.

Sequences of proteins named here, by UniProt entry; tags and fusion partners are left off.
UniProt P51617: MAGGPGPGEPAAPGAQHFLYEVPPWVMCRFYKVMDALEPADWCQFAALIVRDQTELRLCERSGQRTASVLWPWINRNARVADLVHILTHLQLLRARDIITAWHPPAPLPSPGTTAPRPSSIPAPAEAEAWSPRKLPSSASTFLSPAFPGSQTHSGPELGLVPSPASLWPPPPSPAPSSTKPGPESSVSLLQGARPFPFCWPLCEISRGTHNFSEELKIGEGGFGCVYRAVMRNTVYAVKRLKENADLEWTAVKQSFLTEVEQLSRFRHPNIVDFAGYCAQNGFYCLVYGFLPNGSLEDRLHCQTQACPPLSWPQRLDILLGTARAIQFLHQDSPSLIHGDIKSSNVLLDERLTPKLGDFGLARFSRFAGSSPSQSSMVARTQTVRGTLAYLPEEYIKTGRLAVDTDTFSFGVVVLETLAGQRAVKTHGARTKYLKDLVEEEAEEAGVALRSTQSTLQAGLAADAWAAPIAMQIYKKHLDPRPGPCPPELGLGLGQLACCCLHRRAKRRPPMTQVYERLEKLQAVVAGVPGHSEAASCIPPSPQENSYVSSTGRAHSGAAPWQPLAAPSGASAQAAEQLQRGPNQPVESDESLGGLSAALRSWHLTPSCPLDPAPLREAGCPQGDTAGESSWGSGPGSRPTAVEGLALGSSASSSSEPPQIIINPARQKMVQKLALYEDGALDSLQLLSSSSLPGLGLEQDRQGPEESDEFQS
UniProt Q99836: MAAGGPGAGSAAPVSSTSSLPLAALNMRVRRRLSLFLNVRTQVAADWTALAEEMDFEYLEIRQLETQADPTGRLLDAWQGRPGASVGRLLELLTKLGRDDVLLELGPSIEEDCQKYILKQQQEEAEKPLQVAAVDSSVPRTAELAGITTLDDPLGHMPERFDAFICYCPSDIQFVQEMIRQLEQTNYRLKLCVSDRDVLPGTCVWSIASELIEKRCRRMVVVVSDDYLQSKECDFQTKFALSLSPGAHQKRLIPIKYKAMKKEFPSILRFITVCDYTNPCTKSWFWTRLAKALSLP

Target: T1, Transglutaminase 2 (human) (UniProt P21980)
T1 sequence: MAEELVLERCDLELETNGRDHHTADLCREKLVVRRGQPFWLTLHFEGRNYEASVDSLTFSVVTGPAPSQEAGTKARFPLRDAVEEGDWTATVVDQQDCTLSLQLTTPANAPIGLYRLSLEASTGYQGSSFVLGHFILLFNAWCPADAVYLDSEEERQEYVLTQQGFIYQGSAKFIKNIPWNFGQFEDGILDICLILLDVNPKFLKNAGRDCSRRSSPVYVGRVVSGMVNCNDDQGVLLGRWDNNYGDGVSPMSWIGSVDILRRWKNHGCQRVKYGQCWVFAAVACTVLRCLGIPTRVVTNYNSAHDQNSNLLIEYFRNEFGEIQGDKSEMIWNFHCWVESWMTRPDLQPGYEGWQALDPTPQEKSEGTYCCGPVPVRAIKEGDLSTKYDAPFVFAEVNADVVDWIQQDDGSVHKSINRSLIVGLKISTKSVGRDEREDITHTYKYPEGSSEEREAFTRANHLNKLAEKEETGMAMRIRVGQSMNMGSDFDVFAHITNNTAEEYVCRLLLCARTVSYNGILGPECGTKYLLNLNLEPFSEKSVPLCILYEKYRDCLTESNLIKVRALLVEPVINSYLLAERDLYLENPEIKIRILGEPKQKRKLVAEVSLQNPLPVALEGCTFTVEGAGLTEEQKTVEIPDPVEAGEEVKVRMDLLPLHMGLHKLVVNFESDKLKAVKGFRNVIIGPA
Experiment: co-IP; MCF7_TG2 cells treated with IL-1β (10 ng/ml) for 30 min; cell lysates immunoprecipitated with anti-TG2 antibody; TG2, IRAK1, TRAF6 and MyD88 detected by Western blot

binding	Substance
no binding	IRAK1 (from UniProt P51617 1-712)
no binding	MyD88 (from UniProt Q99836 1-296)
